Measurements: publication PMC6896172, “Successful Targeting of the Warburg Effect in Prostate Cancer by Glucose-Conjugated 1,4-Naphthoquinones” (Cancers, 2019)
This continues a long series; more values of the same kind are listed elsewhere.

Tested on: 22Rv1 cells
Test: Global proteome analysis (LC-MS/MS, DIA) of differentially expressed proteins
Type: cell-based, human
Description: 22Rv1 cells were seeded in T75 culture bottles (4 × 10^6 cells/bottle in 20 mL/bottle), treated for 48 h with the 5 µM of compound 11 or vehicle (DMSO), harvested by scratching, washed twice with ice-cold PBS and flash-frozen. Cells were lysed and sonicated. The protein extracts were then heat-denaturated, reduced, alkylated and digested by trypsin. Peptides were chromatographically separated using full recovery autosampler vials and a nano-UPLC system (Acquity, Waters Corporation, Milford, MS, USA), coupled via electrospray ionization (ESI) to a tandem mass spectrometer equipped with a quadrupole and an orbitrap (QExactive, Thermo Fisher Scientific, Bremen, Germany), using MS/MS mode in data dependent acquisition (DDA) and data independent acquisition (DIA). The peptides, analyzed with DDA-LC-MS/MS, were identified with the search engine Sequest, integrated in the Proteome Discoverer software version 2.0 (Thermo Fischer Scientific) using the human Uniprot protein database (EMBL; Hinxton Cambridge, UK, release December 2018). […] For the details of sample preparation and proceeding, data acquisition and analysis see the Supplementary information. […]
serum (FBS, Invitrogen) and 1% penicillin/streptomycin (Invitrogen)). […]
Cell lines were lysed in 100 mM triethylammonium bicarbonate and 1% w/v sodium deoxycholate buffer followed by probe sonication to destroy polynucleotides and heat induce protein denaturing at 99 °C for 5 min. Protein concentrations were estimated with a bicinchonic acid (BCA) protein assay (Thermo Fisher Scientific, Bremen, Germany). 20 µg of protein were reduced in presence of 10 mM dithiotreithol (Sigma Aldrich) for 30 min at 60 °C followed by cysteine alkylation with 20 mM iodo acetamide (Sigma Aldrich) for 30 min at 37 °C in the dark and enzymatic degradation with sequencing grade trypsin (Promega) over night at 37 °C. Digestion was quenched with 1% formic acid (FA), precipitated sodium deoxycholate removed by centrifugation for 5 min at 14,000 g and the supernatant was dried in a vacuum centrifuge.
LC-MS/MS in Data Dependent and Data Independent Mode
Samples were resuspended in 0.1% FA and transferred into a full recovery autosampler vial (Waters). Chromatographic separation was achieved on a nano -UPLC system (Acquity, Waters Corporation, Milford, MS, USA) with a two-buffer-system (buffer A: 0.1% FA in water, buffer B:
0.1% FA in Acetonitrile (ACN), both at pH = 3). Attached to the UPLC was a reversed -phase peptide trapping column (Symmetry C18, 180 µm × 20 mm, 100 Å pore size, 5 µm particle size) for desalting, followed by a reversed-phase capillary separation of the tryptic peptides (BEH C18; 75 µm × 200 mm, 130 Å pore size, 1.7 µm particle size), using a 60 min gradient with increasing ACN concentration from 2–30% ACN. The eluting peptides were analyzed on a quadrupole-orbitrap mass spectrometer (QExactive, Thermo Fisher Scientific, Bremen, Germany) in data dependent acquisition (DDA) and data independent acquisition (DIA) for quantification.
In DDA mode, one replicate of each cell line was randomly chosen and 1 µg per sample was used per LC-MS/MS run to build a reference spectral library used for data extraction of samples acquired in DIA mode. For DDA, the 12 most intense ions per precursor scan (1 × 10 6 ions, 70,000 Resolution, 120 ms fill time) were analyzed by MS/MS (HCD at 25 normalized collision energy, 1 × 105 ions, 17,500 Resolution, 50 ms fill time) in a range of 400–1300 m/z. A dynamic precursor exclusion of 20 s was used. For DIA, 1 µg of each sample was analyzed using a 30 sequential 20 Da fixed window method covering the mass range from 400 –1000 m/z. Per cycle, 2 precursor scans (1 × […]
28 normalized collision energy, 1 × 106 ions, 17,500 Resolution, 50 ms fill time) were performed.
After the first precursor scan, 15 MS/MS scans were performed covering the precursor mass range from 400–700 m/z followed by the second precursor scan and another 15 MS/MS scans ranging from […]
LC-MS/MS Data Processing and Analysis […]

SMILES: CC1(C)OC2OC(C(O)COC3=CC(=O)c4cccc(O)c4C3=O)C(O)C2O1 (centres unmarked) [Compound 11]
- Fold change (treated / control) (IF4A1_HUMAN P60842): 0.6202
- Fold change (treated / control) (IF6_HUMAN P56537): 1.149
- Fold change (treated / control) (IMA1_HUMAN P52292): 0.5682
- Fold change (treated / control) (IPO4_HUMAN Q8TEX9): 0.5203
- Fold change (treated / control) (IPYR2_HUMAN Q9H2U2): 1.308
- Fold change (treated / control) (IPYR_HUMAN Q15181): 1.243
- Fold change (treated / control) (JAM1_HUMAN Q9Y624): 1.844
- Fold change (treated / control) (K1C18_HUMAN P05783): 1.686
- Fold change (treated / control) (K2C7_HUMAN P08729): 0.6774
- Fold change (treated / control) (K2C8_HUMAN P05787): 1.371
- Fold change (treated / control) (KAD2_HUMAN P54819): 0.8046
- Fold change (treated / control) (KAP2_HUMAN P13861): 1.245
- Fold change (treated / control) (KCY_HUMAN P30085): 1.424
- Fold change (treated / control) (KDM2A_HUMAN Q9Y2K7): 0.3972
- Fold change (treated / control) (KITH_HUMAN P04183): 0.3876
- Fold change (treated / control) (KPRB_HUMAN O60256): 1.485
- Fold change (treated / control) (KPYM_HUMAN P14618): 1.184
- Fold change (treated / control) (LARP4_HUMAN Q71RC2): 0.5045
- Fold change (treated / control) (LDHA_HUMAN P00338): 1.229
- Fold change (treated / control) (LIMC1_HUMAN Q9UPQ0): 2.0937
- Fold change (treated / control) (LIS1_HUMAN P43034): 1.602
- Fold change (treated / control) (LKHA4_HUMAN P09960): 1.304
- Fold change (treated / control) (LMNA_HUMAN P02545): 1.282
- Fold change (treated / control) (LNP_HUMAN Q9C0E8): 1.307
- Fold change (treated / control) (LPPRC_HUMAN P42704): 0.8791
- Fold change (treated / control) (LRWD1_HUMAN Q9UFC0): 0.5648
- Fold change (treated / control) (LSM2_HUMAN Q9Y333): 1.955
- Fold change (treated / control) (LYPA1_HUMAN O75608): 1.345
- Fold change (treated / control) (MATR3_HUMAN P43243): 0.8834
- Fold change (treated / control) (MBB1A_HUMAN Q9BQG0): 0.4544
- Fold change (treated / control) (MBNL1_HUMAN Q9NR56): 1.5
- Fold change (treated / control) (MCA3_HUMAN O43324): 1.338
- Fold change (treated / control) (MCCB_HUMAN Q9HCC0): 0.8303
- Fold change (treated / control) (MCES_HUMAN O43148): 1.42
- Fold change (treated / control) (MCM2_HUMAN P49736): 0.5572
- Fold change (treated / control) (MCM3_HUMAN P25205): 0.6329
- Fold change (treated / control) (MCM4_HUMAN P33991): 0.5634
- Fold change (treated / control) (MCM5_HUMAN P33992): 0.5949
- Fold change (treated / control) (MCM6_HUMAN Q14566): 0.6119
- Fold change (treated / control) (MCM7_HUMAN P33993): 0.5855
- Fold change (treated / control) (MCP_HUMAN P15529): 0.1636
- Fold change (treated / control) (MET7A_HUMAN Q9H8H3): 0.7217
- Fold change (treated / control) (MGN2_HUMAN Q96A72): 1.797
- Fold change (treated / control) (MGN_HUMAN P61326): 1.39
- Fold change (treated / control) (MIEN1_HUMAN Q9BRT3): 0.6775
- Fold change (treated / control) (MINP1_HUMAN Q9UNW1): 1.762
- Fold change (treated / control) (MIPEP_HUMAN Q99797): 0.6023
- Fold change (treated / control) (MMSA_HUMAN Q02252): 0.7267
- Fold change (treated / control) (MOFA1_HUMAN Q9Y605): 0.5421
- Fold change (treated / control) (MPPB_HUMAN O75439): 0.7358
- Fold change (treated / control) (MTA1_HUMAN Q13330): 0.5631
- Fold change (treated / control) (MTA2_HUMAN O94776): 0.5939
- Fold change (treated / control) (MTX1_HUMAN Q13505): 1.3478
- Fold change (treated / control) (MVP_HUMAN Q14764): 1.393
- Fold change (treated / control) (MYDGF_HUMAN Q969H8): 1.494
- Fold change (treated / control) (MYH9_HUMAN P35579): 1.516
- Fold change (treated / control) (MYL6_HUMAN P60660): 1.584
- Fold change (treated / control) (MZT1_HUMAN Q08AG7): 0.7035
- Fold change (treated / control) (NAMPT_HUMAN P43490): 1.355
- Fold change (treated / control) (NASP_HUMAN P49321): 0.7313
- Fold change (treated / control) (NDK3_HUMAN Q13232): 1.551
- Fold change (treated / control) (NDUA2_HUMAN O43678): 0.4769
- Fold change (treated / control) (NDUA3_HUMAN O95167): 0.3195
- Fold change (treated / control) (NDUA4_HUMAN O00483): 0.4541
- Fold change (treated / control) (NDUA6_HUMAN P56556): 1.556
- Fold change (treated / control) (NDUAC_HUMAN Q9UI09): 0.6076
- Fold change (treated / control) (NDUB4_HUMAN O95168): 0.7762
- Fold change (treated / control) (NDUBA_HUMAN O96000): 0.7553
- Fold change (treated / control) (NDUS1_HUMAN P28331): 0.5206
- Fold change (treated / control) (NDUV1_HUMAN P49821): 0.6332
- Fold change (treated / control) (NEP1_HUMAN Q92979): 0.7224
- Fold change (treated / control) (NHLC2_HUMAN Q8NBF2): 1.379
- Fold change (treated / control) (NIF3L_HUMAN Q9GZT8): 1.466
- Fold change (treated / control) (NLTP_HUMAN P22307): 1.224
- Fold change (treated / control) (NNTM_HUMAN Q13423): 0.849
- Fold change (treated / control) (NOG1_HUMAN Q9BZE4): 0.5546
- Fold change (treated / control) (NOP56_HUMAN O00567): 0.7231
- Fold change (treated / control) (NPL4_HUMAN Q8TAT6): 1.906
- Fold change (treated / control) (NPM3_HUMAN O75607): 0.7477
- Fold change (treated / control) (NPM_HUMAN P06748): 1.144
- Fold change (treated / control) (NSA2_HUMAN O95478): 0.4343
- Fold change (treated / control) (NSF1C_HUMAN Q9UNZ2): 1.333
- Fold change (treated / control) (NUCG_HUMAN Q14249): 0.1894
- Fold change (treated / control) (NUD19_HUMAN A8MXV4): 1.502
- Fold change (treated / control) (NUP54_HUMAN Q7Z3B4): 1.218
- Fold change (treated / control) (OAT_HUMAN P04181): 1.477
- Fold change (treated / control) (ODO1_HUMAN Q02218): 0.8847
- Fold change (treated / control) (ODO2_HUMAN P36957): 1.1964
- Fold change (treated / control) (ODPX_HUMAN O00330): 0.7973
- Fold change (treated / control) (OSBL9_HUMAN Q96SU4): 1.7847
- Fold change (treated / control) (OST48_HUMAN P39656): 0.9074
- Fold change (treated / control) (OTUB1_HUMAN Q96FW1): 1.339
- Fold change (treated / control) (P4HTM_HUMAN Q9NXG6): 0.3114
- Fold change (treated / control) (P5CR2_HUMAN Q96C36): 0.455
- Fold change (treated / control) (PA1B3_HUMAN Q15102): 1.114
- Fold change (treated / control) (PB1_HUMAN Q86U86): 0.6737
- Fold change (treated / control) (PBDC1_HUMAN Q9BVG4): 1.74
- Fold change (treated / control) (PCBP1_HUMAN Q15365): 0.8148
- Fold change (treated / control) (PCBP2_HUMAN Q15366): 0.6786
- Fold change (treated / control) (PCNA_HUMAN P12004): 0.6578
- Fold change (treated / control) (PDCD6_HUMAN O75340): 1.152
